Source: article PMC11984393
Construct, isoform or probe ends are uncertain for at least one entry. At least one result comes from cells or an extract, where the contact may be indirect. For some of these results: The comparison behind a weaker result is the experiment's own reference, which may not be listed here. For some of these results: At least one verdict was read from the data and is not stated in words by the source.

By UniProt entry, the sequences of proteins in these tests, tags left out. Residues count along the entry.
UniProt Q02242, 25-288: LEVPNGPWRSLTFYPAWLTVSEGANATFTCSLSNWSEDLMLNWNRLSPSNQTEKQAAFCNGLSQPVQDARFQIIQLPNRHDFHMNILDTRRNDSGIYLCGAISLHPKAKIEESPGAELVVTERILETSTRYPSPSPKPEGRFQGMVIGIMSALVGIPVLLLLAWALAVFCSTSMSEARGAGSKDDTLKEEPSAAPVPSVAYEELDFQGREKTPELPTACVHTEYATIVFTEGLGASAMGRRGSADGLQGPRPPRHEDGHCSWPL

Experiments:
[1] = test system: CD8 (T-cell surface marker); experiment: NIR-II fluorescence cell imaging; settings: CD8+ T cells, 30 min, QD conjugate; 3'-SH, coupled to DSPE-PEG-Mal on PbS/CdS QDs; live-cell binding, 30 min incubation; protein on the cell surface; label: PbS/CdS QD; single-stranded DNA
[2] = molecular target: PD1 (programmed death-1) (UniProt Q02242); experiment: flow cytometry; settings: CD8+ T cells, 30 min, live-cell binding, 30 min incubation, protein on the cell surface, label: 5'-FAM, single-stranded DNA
[3] = molecular target: PD1 (programmed death-1) (UniProt Q02242); experiment: NIR-II fluorescence cell imaging; settings: naive vs activated T cells, 30 min; live-cell binding, 30 min incubation; protein on the cell surface; label: 5'-ICG; single-stranded DNA

CCAGAGTGACGCAGCAACAGAGGTGTAGAAGTACACGTGAACAAGCTTGAAATTGTCTCCGACAGAGGTGGACACGGTGGCTTTTAGT [Apt-CD8-SH (QDs@Apt-CD8)]
binding result [1]: binds

TTTTTAAGTAATGTATTTAAATTGCGAACTACTACTCTCTCTATATATTGCGAACTACTACTCTCTCTATATTAAAGGAAGGATCTCA [Apt-random-FAM]
binding result ([2]; significantly lower than Apt-PD1): binds more weakly

GACGATAGCGGTGACGGCACAGACGGTACAGTTCCCGTCCCTGCACTACACGTATGCCGCTTCCGTCCGTCGCTC [Apt-PD1-FAM]
binding result ([2]; no binding to CT26 or CL2 cells): binds

GACGATAGCGGTGACGGCACAGACGGTACAGTTCCCGTCCCTGCACTACACGTATGCCGCTTCCGTCCGTCGCTC [ICG-Apt-PD1]
binding result [3]: binds
